The list shows a part of the results.
Columns and labels:
Assay in all cases: glycan array binding signal (z-score within array); higher = stronger binding
Conditions in all cases: glycan notation: IUPAC condensed, linker removed
Fuc(a1-2)Gal = biological target: Fuc(a1-2)Gal
Method in brief: (§1)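 The binding signal is a Z-score computed within each array and averaged over linkers. Arrays of the same protein sequence at different concentrations or buffers were also averaged together. Data originate from 3228 arrays in the Consortium for Functional Glycomics database, kept only where the protein sequence was available.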

Fuc(a1-2)Gal(b1-3)GalNAc = biological target: Fuc(a1-2)Gal(b1-3)GalNAc
Method in brief: as §1

[1] = biological target: Fuc(a1-2)Gal(b1-3)GalNAc(b1-3)Gal
Method in brief: as §1

[2] = biological target: Fuc(a1-2)Gal(b1-3)GalNAc(b1-3)Gal(a1-4)Gal(b1-4)Glc
Method in brief: as §1

[3] = biological target: Fuc(a1-2)Gal(b1-3)GalNAc(b1-4)[Neu5Ac(a2-3)]Gal(b1-4)Glc
Method in brief: as §1

Fuc(a1-2)Gal(b1-3)GlcNAc = biological target: Fuc(a1-2)Gal(b1-3)GlcNAc
Method in brief: as §1

[4] = biological target: Fuc(a1-2)Gal(b1-3)GlcNAc(b1-3)Gal(b1-4)Glc
Method in brief: as §1

[5] = biological target: Fuc(a1-2)Gal(b1-3)[Fuc(a1-4)]GlcNAc
Method in brief: as §1

Fuc(a1-2)Gal(b1-4)Glc = biological target: Fuc(a1-2)Gal(b1-4)Glc
Method in brief: as §1

Fuc(a1-2)Gal(b1-4)Glc6S = biological target: Fuc(a1-2)Gal(b1-4)Glc6S
Method in brief: as §1

Fuc(a1-2)Gal(b1-4)GlcNAc = biological target: Fuc(a1-2)Gal(b1-4)GlcNAc
Method in brief: as §1

[6] = biological target: Fuc(a1-2)Gal(b1-4)GlcNAc(b1-3)Gal(b1-4)GlcNAc
Method in brief: as §1

[7] = biological target: Fuc(a1-2)Gal(b1-4)GlcNAc(b1-3)Gal(b1-4)GlcNAc(b1-3)Gal(b1-4)GlcNAc
Method in brief: as §1

[8] = biological target: Fuc(a1-2)Gal(b1-4)GlcNAc6S
Method in brief: as §1

[9] = biological target: Fuc(a1-2)Gal(b1-4)[Fuc(a1-3)]GlcNAc
Method in brief: as §1

[10] = biological target: Fuc(a1-2)Gal(b1-4)[Fuc(a1-3)]GlcNAc(b1-3)Gal(b1-4)[Fuc(a1-3)]GlcNAc
Method in brief: as §1

[11] = biological target: Fuc(a1-2)Gal(b1-4)[Fuc(a1-3)]GlcNAc(b1-3)Gal(b1-4)[Fuc(a1-3)]GlcNAc(b1-3)Gal(b1-4)[Fuc(a1-3)]GlcNAc
Method in brief: as §1

Fuc(a1-2)Gal6S(b1-4)Glc = biological target: Fuc(a1-2)Gal6S(b1-4)Glc
Method in brief: as §1

[12] = biological target: Fuc(a1-2)Gal6S(b1-4)Glc6S
Method in brief: as §1

[13] = biological target: Fuc(a1-2)Gal6S(b1-4)GlcNAc
Method in brief: as §1

Fuc(a1-2)[Gal(a1-3)]Gal = biological target: Fuc(a1-2)[Gal(a1-3)]Gal
Method in brief: as §1

[14] = biological target: Fuc(a1-2)[Gal(a1-3)]Gal(b1-3)GlcNAc
Method in brief: as §1

[15] = biological target: Fuc(a1-2)[Gal(a1-3)]Gal(b1-4)Glc
Method in brief: as §1

[16] = biological target: Fuc(a1-2)[Gal(a1-3)]Gal(b1-4)GlcNAc
Method in brief: as §1

[17] = biological target: Fuc(a1-2)[Gal(a1-3)]Gal(b1-4)[Fuc(a1-3)]GlcNAc
Method in brief: as §1

[18] = biological target: Fuc(a1-2)[Gal(a1-4)]Gal(b1-4)GlcNAc
Method in brief: as §1

[19] = biological target: Fuc(a1-2)[GalNAc(a1-3)]Gal
Method in brief: as §1

[20] = biological target: Fuc(a1-2)[GalNAc(a1-3)]Gal(b1-3)GlcNAc
Method in brief: as §1

[21] = biological target: Fuc(a1-2)[GalNAc(a1-3)]Gal(b1-4)Glc
Method in brief: as §1

[22] = biological target: Fuc(a1-2)[GalNAc(a1-3)]Gal(b1-4)GlcNAc
Method in brief: as §1

[23] = biological target: Fuc(a1-2)[GalNAc(a1-3)]Gal(b1-4)[Fuc(a1-3)]GlcNAc
Method in brief: as §1

[24] = biological target: Fuc(a1-2)[GalNAc(a1-4)]Gal(b1-4)GlcNAc
Method in brief: as §1

[25] = biological target: Fuc(a1-2)[GalNAc(b1-3)]Gal
Method in brief: as §1

Fuc(a1-3)GlcNAc = biological target: Fuc(a1-3)GlcNAc
Method in brief: as §1

[26] = biological target: Fuc(a1-3)[Gal(b1-4)]Glc6S
Method in brief: as §1

[27] = biological target: Fuc(a1-3)[Gal(b1-4)]GlcNAc
Method in brief: as §1

[28] = biological target: Fuc(a1-3)[Gal(b1-4)]GlcNAc(b1-2)Man(a1-3)[Fuc(a1-3)[Gal(b1-4)]GlcNAc(b1-2)Man(a1-6)]Man(b1-4)GlcNAc(b1-4)GlcNAc
Method in brief: as §1

[29] = biological target: Fuc(a1-3)[Gal(b1-4)]GlcNAc(b1-2)Man(a1-6)[Gal(b1-4)GlcNAc(b1-2)Man(a1-3)]Man(b1-4)GlcNAc(b1-4)GlcNAc
Method in brief: as §1

[30] = biological target: Fuc(a1-3)[Gal(b1-4)]GlcNAc(b1-3)Gal(b1-3)[Fuc(a1-4)]GlcNAc
Method in brief: as §1

[31] = biological target: Fuc(a1-3)[Gal(b1-4)]GlcNAc(b1-4)Gal(b1-4)[Fuc(a1-3)]GlcNAc
Method in brief: as §1

[32] = biological target: Fuc(a1-3)[Gal(b1-4)]GlcNAc(b1-4)Gal(b1-4)[Fuc(a1-3)]GlcNAc(b1-4)Gal(b1-4)[Fuc(a1-3)]GlcNAc
Method in brief: as §1

[33] = biological target: Fuc(a1-3)[Gal(b1-4)]GlcNAc6S
Method in brief: as §1

[34] = biological target: Fuc(a1-3)[Gal3S(b1-4)]Glc6S
Method in brief: as §1

[35] = biological target: Fuc(a1-3)[Gal3S(b1-4)]GlcNAc
Method in brief: as §1

[36] = biological target: Fuc(a1-3)[Gal3S(b1-4)]GlcNAc6S
Method in brief: as §1

B1: Mcg Light Chain Dimer (Homo sapiens), Q6PIK1 (protein)
chain: MAGFPLLLTLLTHCAGSWGQSLLTQPPSVSGTPGQRVTISCSGSSSNIGINYVYWYQQIPGTAPKLLISTNDQRPSGVPDRFSGSKSGTSASLAIGGLRSEDEAHYYCAAWDDSMSGPGYAFGTGTKVTVLRQPKANPTVTLFPPSSEELQANKATLVCLISDFYPGAVTVAWKADGSPVKAGVETTKPSKQSNNKYAASSYLSLTPEQWKSHRSYSCQVTHEGSTVEKTVAPTECS
glycan array binding signal (z-score) (Fuc(a1-2)Gal): 0.391
glycan array binding signal (z-score) (Fuc(a1-2)Gal(b1-3)GalNAc): 0.185
glycan array binding signal (z-score) [1]: -0.611
glycan array binding signal (z-score) [2]: 0.219
glycan array binding signal (z-score) [3]: 0.092
glycan array binding signal (z-score) (Fuc(a1-2)Gal(b1-3)GlcNAc): -0.346
glycan array binding signal (z-score) [4]: -0.386
glycan array binding signal (z-score) [5]: -0.879
glycan array binding signal (z-score) (Fuc(a1-2)Gal(b1-4)Glc): -0.76
glycan array binding signal (z-score) (Fuc(a1-2)Gal(b1-4)Glc6S): 0.735
glycan array binding signal (z-score) (Fuc(a1-2)Gal(b1-4)GlcNAc): -0.245
glycan array binding signal (z-score) [6]: -0.758
glycan array binding signal (z-score) [7]: 1.09
glycan array binding signal (z-score) [8]: 1.76
glycan array binding signal (z-score) [9]: -0.471
glycan array binding signal (z-score) [10]: -0.965
glycan array binding signal (z-score) [11]: 0.461
glycan array binding signal (z-score) (Fuc(a1-2)Gal6S(b1-4)Glc): -0.637
glycan array binding signal (z-score) [12]: 0.412
glycan array binding signal (z-score) [13]: -0.601
glycan array binding signal (z-score) (Fuc(a1-2)[Gal(a1-3)]Gal): -0.347
glycan array binding signal (z-score) [14]: -0.231
glycan array binding signal (z-score) [15]: -1.02
glycan array binding signal (z-score) [16]: 0.23
glycan array binding signal (z-score) [17]: -0.709
glycan array binding signal (z-score) [18]: -0.754
glycan array binding signal (z-score) [19]: -0.361
glycan array binding signal (z-score) [20]: -0.917
glycan array binding signal (z-score) [21]: 0.238
glycan array binding signal (z-score) [22]: -0.401
glycan array binding signal (z-score) [23]: 0.285
glycan array binding signal (z-score) [24]: 0.28
glycan array binding signal (z-score) [25]: 0.344
glycan array binding signal (z-score) (Fuc(a1-3)GlcNAc): -0.817
glycan array binding signal (z-score) [26]: 0.996
glycan array binding signal (z-score) [27]: -0.433
glycan array binding signal (z-score) [28]: 0.038
glycan array binding signal (z-score) [29]: -0.998
glycan array binding signal (z-score) [30]: -0.769
glycan array binding signal (z-score) [31]: 0.391
glycan array binding signal (z-score) [32]: -0.985
glycan array binding signal (z-score) [33]: -0.489
glycan array binding signal (z-score) [34]: 2.11
glycan array binding signal (z-score) [35]: 0.341
glycan array binding signal (z-score) [36]: 4.13

From the supplement of paper PMC8728848
